The values that follow come from paper PMC7819943, “Rice protein-binding microarrays: a tool to detect cis-acting elements near promoter regions in rice”.

The other results are listed elsewhere or left out.

This experiment addresses T1, OsSMF1 (Oryza sativa, UniProt Q6ZLB0 1-436).
T1 sequence: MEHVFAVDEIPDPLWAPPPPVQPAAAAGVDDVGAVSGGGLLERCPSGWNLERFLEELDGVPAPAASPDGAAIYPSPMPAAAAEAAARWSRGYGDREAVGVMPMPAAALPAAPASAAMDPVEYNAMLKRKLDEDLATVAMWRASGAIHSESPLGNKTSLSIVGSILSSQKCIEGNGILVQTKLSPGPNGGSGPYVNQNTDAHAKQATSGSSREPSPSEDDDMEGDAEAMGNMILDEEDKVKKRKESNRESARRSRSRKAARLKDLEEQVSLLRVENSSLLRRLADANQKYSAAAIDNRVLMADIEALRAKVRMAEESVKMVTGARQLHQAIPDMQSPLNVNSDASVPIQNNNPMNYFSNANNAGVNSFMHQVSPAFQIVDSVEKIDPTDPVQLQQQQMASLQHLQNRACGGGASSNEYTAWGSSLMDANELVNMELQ
Put plainly: protein-binding microarray (RPBM); PBS, 2% BSA, 51.3 ng/ul salmon testes DNA, 50 uM zinc acetate, 200 nM TF, 25 C, 1 h; high values mean tight binding. The conditions noted are these: protein: recombinant; tags: N-terminal polyhistidine and DsRed monomer fusion (pET32a); chain copies: 2; label: CyDye5-dUTP incorporated in the synthesized complementary strand; 3' TTTTT single-stranded linker to array surface; dsDNA, one strand shown. A digest of the protocol:
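Ni–NTA purification followed expression in E. coli BL21-CodonPlus of transcription factors fused N-terminally to a polyhistidine tag and DsRed. At 200 nM in PBS with 2% BSA, salmon testes DNA and 50 µM zinc acetate, the protein was incubated for 1 h at 25 °C with a custom Agilent array that had been primer-extended with Cy5-dUTP and blocked with 2% BSA. After washing, the array was read on an Axon 4000B scanner. The binding signal is per-feature fluorescence intensity in arbitrary units.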
Regarding “GACGGAGCACCTTGATCAATGAGGATTAATTCCTTGGTCTCGGAGTCACCTAGTGCAG”, the binding signal is 8900 fluorescence intensity (a.u.).

In the case of “ACAACCAGAGTGATTTCATCAGCCATGTCATCATCCATGACGGAGTCACCTAGTGCAG”, the binding signal is 10200 fluorescence intensity (a.u.).

For the sequence “CATAATTAGCGGTTGATTACTGTAGCATCACTGTAACAAACGGAGTCACCTAGTGCAG”, the binding signal was 3730 fluorescence intensity (a.u.).

As for “CATCACACCTAACCGACTCCTTTTCCACACAAACAGATTACGGAGTCACCTAGTGCAG”, the binding signal is 20400 fluorescence intensity (a.u.).

For “GATGGTAGGGGAGGCGGTAGAGCCAAAGCCATAGCATCGGCGGAGTCACCTAGTGCAG”, the binding signal is 3360 fluorescence intensity (a.u.).

As for “GCGCGGCGCGGAGCAGAGGAGGACGAAGCAGCAGGCGGCGCGGAGTCACCTAGTGCAG”, the binding signal is 4120 fluorescence intensity (a.u.).

On to “GTTTACAGTACTAATGATAGCCACGTGTTTATTGCGGTTACGGAGTCACCTAGTGCAG”, for which the binding signal was 12100 fluorescence intensity (a.u.).

With “ACAACCCTTTCATTACCAGTCATCTCCTCCCACACTCAGCCGGAGTCACCTAGTGCAG”, the binding signal is 3520 fluorescence intensity (a.u.).

On to “CCATGGTACAGTAGGGTTGTCGTCAATCTTGTGTTTCTTTCGGAGTCACCTAGTGCAG”, for which the binding signal is 3150 fluorescence intensity (a.u.).

Regarding “TTTACCCTTTTGCCCAATGCTATTGCATTTACGTGCCATACGGAGTCACCTAGTGCAG”, the binding signal was 3580 fluorescence intensity (a.u.).

For the sequence “CTGCCAGCAGAACACACAGTGACACATTACACCACACACGCGGAGTCACCTAGTGCAG”, the binding signal is 3310 fluorescence intensity (a.u.).

For “TTAATTCTGAATTTCTATTATTTCTTAATTGTATTTCTATCGGAGTCACCTAGTGCAG”, the binding signal was 3320 fluorescence intensity (a.u.).

Consider “TATATTTGACTGGATGGAGTATCTTGTTTCAAAGAAATCGCGGAGTCACCTAGTGCAG”, for which the binding signal was 28700 fluorescence intensity (a.u.).

With “ACCAATCTCCTTCGCCCTCTGACTCACTAGCTAGGAAACCCGGAGTCACCTAGTGCAG”, the binding signal was 6550 fluorescence intensity (a.u.).

In the case of “GGCACGTACACAGTCAGATCCACCTTGGCAAGCTATAATCCGGAGTCACCTAGTGCAG”, the binding signal was 5880 fluorescence intensity (a.u.).

Consider “GATGATGGGACGTGGGGTGGGATCGGAAGTAGGAAAGTTGCGGAGTCACCTAGTGCAG”, for which the binding signal is 3430 fluorescence intensity (a.u.).

Take “CCGCGCCCGCGCGTGAGCGGACTACAGTGTCAGCTTGCTACGGAGTCACCTAGTGCAG”: the binding signal is 3250 fluorescence intensity (a.u.).

Consider “ACCGAAGCAACTGAGAAGCAGATAGTCAAACTGATTGAAACGGAGTCACCTAGTGCAG”, for which the binding signal was 5390 fluorescence intensity (a.u.).

For the sequence “AGCGCATAGGACGCCATGTTATCCGCCGCCGACTGGGCGGCGGAGTCACCTAGTGCAG”, the binding signal was 22800 fluorescence intensity (a.u.).

On to “CCCGCGCGGCGCGGCGCCCCGTGACGATGCGTTGGCCCACCGGAGTCACCTAGTGCAG”, for which the binding signal was 5360 fluorescence intensity (a.u.).

In the case of “TGACCCCACCGGTCAGTCAGTGCCACGTCAGGACTCCTATCGGAGTCACCTAGTGCAG”, the binding signal is 17000 fluorescence intensity (a.u.).

Turning to “AACGCGCAGCGCCACTGCTGCCACCGCCCGCCGCCTGCCGCGGAGTCACCTAGTGCAG”, the binding signal was 3410 fluorescence intensity (a.u.).

On to “GCCGAGGACGACGCAGTCCATCTGTGCCCAATCCACGTGGCGGAGTCACCTAGTGCAG”, for which the binding signal is 13700 fluorescence intensity (a.u.).

For “ATTTAGCCATGTCATCGTCCACGTGGCATGCCACATAGGCCGGAGTCACCTAGTGCAG”, the binding signal is 15400 fluorescence intensity (a.u.).

Turning to “GCCGACGGCATCGTCGTCAACGGCAACGGGTTCCACGCGGCGGAGTCACCTAGTGCAG”, the binding signal is 4280 fluorescence intensity (a.u.).

Regarding “CATTTATTTTATTATGACTTGACTTATCATCAAATAATCTCGGAGTCACCTAGTGCAG”, the binding signal is 27900 fluorescence intensity (a.u.).

For “TGTAAGCATCAGCATGTCAAGGTTAACACCTCACTATCTCCGGAGTCACCTAGTGCAG”, the binding signal is 4630 fluorescence intensity (a.u.).

As for “TTCTCTGCTCCTTGGCTCGTCTCCACGGCGTCATTCCGTGCGGAGTCACCTAGTGCAG”, the binding signal was 3880 fluorescence intensity (a.u.).

On to “AATATAGCCAACTGCATAGAGCCAGCTCATGCATATTGGTCGGAGTCACCTAGTGCAG”, for which the binding signal is 4150 fluorescence intensity (a.u.).

In the case of “CGCCGCCTGCGCAACCACACCACAGACGCGTCACCACCCACGGAGTCACCTAGTGCAG”, the binding signal is 10100 fluorescence intensity (a.u.).

With “GAACCTCGAAGAACTTCCGATGCTCCCGTGGCATGCTATACGGAGTCACCTAGTGCAG”, the binding signal was 4110 fluorescence intensity (a.u.).

With “TCCCCACGTTGCATCCCGTCATCCCCATCGAGCGATCCCCCGGAGTCACCTAGTGCAG”, the binding signal is 5760 fluorescence intensity (a.u.).

For “CTCCCGGCGCACTCGTCGTCGTGTTGGGTTGCCGCCGCTTCGGAGTCACCTAGTGCAG”, the binding signal was 3910 fluorescence intensity (a.u.).

As to “TCGTCGACTCCGACGGTGCCACCGTTCCCCTTTCGTCTCCCGGAGTCACCTAGTGCAG”, the binding signal is 3350 fluorescence intensity (a.u.).

For “CAGGCTTAAGGATTCTCGCGTGAGAAAGAATGTTGGAATACGGAGTCACCTAGTGCAG”, the binding signal is 4440 fluorescence intensity (a.u.).

“CCACGCTATCCCATGCGATTCGAGAAGGTTCCACACACACCGGAGTCACCTAGTGCAG”: the binding signal was 41300 fluorescence intensity (a.u.).

For the sequence “CATGTACACACCCACAGTCATCTGCTCATGTTTTCACGGTCGGAGTCACCTAGTGCAG”, the binding signal was 3630 fluorescence intensity (a.u.).

For the sequence “ATCATAGTATGCCGTACGGCCTGGACCTTCTGTCACGTGGCGGAGTCACCTAGTGCAG”, the binding signal was 5660 fluorescence intensity (a.u.).

Turning to “AGGCATACGGCAGATAGCAGTCAACAATGCACACAGGCACCGGAGTCACCTAGTGCAG”, the binding signal was 3750 fluorescence intensity (a.u.).

As for “CCTAACTTCTCTCTTACACCTCATTATCTAATCTTATGTGCGGAGTCACCTAGTGCAG”, the binding signal was 4740 fluorescence intensity (a.u.).

As to “CTCCGTGATCGTCATGTCAAGACGCAAAATAAAGAGCAATCGGAGTCACCTAGTGCAG”, the binding signal was 33400 fluorescence intensity (a.u.).

“AGTACACAATCAATACTTTGAATCTACTTGTCATACGCACCGGAGTCACCTAGTGCAG”: the binding signal is 3520 fluorescence intensity (a.u.).

Consider “TCGAATTAATCATATGAACTATGCGATTTTAATTAACCGTCGGAGTCACCTAGTGCAG”, for which the binding signal is 5440 fluorescence intensity (a.u.).

Take “CCGTCGCCAACACAGCCACAAACCCACAATTACGCGGCGGCGGAGTCACCTAGTGCAG”: the binding signal is 36800 fluorescence intensity (a.u.).

As for “AACTTTCAACTACAGGCTCAAGTGGCCCATTAGTGCGCCACGGAGTCACCTAGTGCAG”, the binding signal was 3520 fluorescence intensity (a.u.).

As to “CCATTCCACTCCTGCGGCTGCTGCTCCCTCTCCCTCTTCGCGGAGTCACCTAGTGCAG”, the binding signal is 3450 fluorescence intensity (a.u.).

For the sequence “GAGAAAGGAACAACTACAAAAGACACACATATATACTATGCGGAGTCACCTAGTGCAG”, the binding signal is 39400 fluorescence intensity (a.u.).

For the sequence “GTGAGTCAGGGGCAAAAGAGTAAACTCGCGCCGCCGATTTCGGAGTCACCTAGTGCAG”, the binding signal is 32500 fluorescence intensity (a.u.).

“CTCTCTCTCGGCTTCCACTCCCGTCTCCTCGTCTCCTCGCCGGAGTCACCTAGTGCAG”: the binding signal is 4090 fluorescence intensity (a.u.).

Regarding “AATCGAAGTTCAATTATGCAAACATGCATTTGCTCTGCTTCGGAGTCACCTAGTGCAG”, the binding signal was 30600 fluorescence intensity (a.u.).

Regarding “CGTCGTGTAGAAAAGCTACTGGAGCTTCGGTGGATTTCGACGGAGTCACCTAGTGCAG”, the binding signal is 3140 fluorescence intensity (a.u.).

Consider “AAATTTTGGCTTGACGTGTCAGGAGGCTCCTGGCATCCAACGGAGTCACCTAGTGCAG”, for which the binding signal was 8550 fluorescence intensity (a.u.).

“AATTTTGTTACCATGTCATTGTTGGTTTACGACACCTGGACGGAGTCACCTAGTGCAG”: the binding signal is 3710 fluorescence intensity (a.u.).

As to “ATGGGTGGTTTCGCTGACGTGGCATCCTAATCTCCATGTGCGGAGTCACCTAGTGCAG”, the binding signal was 30700 fluorescence intensity (a.u.).
